Results: PMC9511784

Protein sequences, listed by entry. Tags and fused reporters are not part of them.
UniProt P51148: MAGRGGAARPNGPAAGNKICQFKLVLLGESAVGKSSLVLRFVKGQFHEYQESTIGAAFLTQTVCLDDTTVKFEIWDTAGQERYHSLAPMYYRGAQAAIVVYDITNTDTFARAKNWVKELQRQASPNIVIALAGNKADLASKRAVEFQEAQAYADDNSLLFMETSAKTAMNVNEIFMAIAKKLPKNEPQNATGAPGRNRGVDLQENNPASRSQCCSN
UniProt P51149: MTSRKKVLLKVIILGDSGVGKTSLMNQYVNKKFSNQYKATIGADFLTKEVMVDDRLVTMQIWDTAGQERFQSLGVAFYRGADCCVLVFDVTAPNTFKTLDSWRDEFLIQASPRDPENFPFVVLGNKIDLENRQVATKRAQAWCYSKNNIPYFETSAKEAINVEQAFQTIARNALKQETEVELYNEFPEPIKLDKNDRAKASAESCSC

T1: myc-tagged full length GSDMB (Gasdermin B) (human) (UniProt Q8TAX9)
T1 sequence: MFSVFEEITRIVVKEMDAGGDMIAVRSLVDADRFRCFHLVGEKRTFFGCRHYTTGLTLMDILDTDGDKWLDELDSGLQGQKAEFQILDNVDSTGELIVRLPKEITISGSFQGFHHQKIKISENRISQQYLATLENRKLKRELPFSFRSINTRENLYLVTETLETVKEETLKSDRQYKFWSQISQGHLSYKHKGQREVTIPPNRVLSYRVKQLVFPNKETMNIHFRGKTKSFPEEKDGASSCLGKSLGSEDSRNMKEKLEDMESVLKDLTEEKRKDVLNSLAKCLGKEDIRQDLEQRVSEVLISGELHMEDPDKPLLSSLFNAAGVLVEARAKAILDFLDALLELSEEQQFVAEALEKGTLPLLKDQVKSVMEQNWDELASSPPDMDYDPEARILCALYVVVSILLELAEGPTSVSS

B1: Rab9A (protein, UniProt P51151 1-201)
chain: MAGKSSLFKVILLGDGGVGKSSLMNRYVTNKFDTQLFHTIGVEFLNKDLEVDGHFVTMQIWDTAGQERFRSLRTPFYRGSDCCLLTFSVDDSQSFQNLSNWKKEFIYYADVKEPESFPFVILGNKIDISERQVSTEEAQAWCRDNGDYPYFETSAKDATNVAAAFEEAVRRVLATEDRSDHLIQTDTVNLHRKPKPSSSCC
B2: Rab15 (protein, UniProt P59190 1-212)
chain: MAKQYDVLFRLLLIGDSGVGKTCLLCRFTDNEFHSSHISTIGVDFKMKTIEVDGIKVRIQIWDTAGQERYQTITKQYYRRAQGIFLVYDISSERSYQHIMKWVSDVDEYAPEGVQKILIGNKADEEQKRQVGREQGQQLAKEYGMDFYETSACTNLNIKESFTRLTELVLQAHRKELEGLRMRASNELALAELEEEEGKPEGPANSSKTCWC

Each molecule was assayed against T1, myc-tagged full length GSDMB (Gasdermin B) (human) (assay: affinity purification with mass spectrometry; HCC1954 GB cells untreated or treated with lapatinib, CQ or both; immunoprecipitated with a Myc-tag antibody, then mass spectrometry).

binding, binds:
Rab5C (from UniProt P51148 1-216)
Ras-related protein Rab-7 (Rab7a) (from UniProt P51149 1-207)
B1
B2

These are yes or no findings as the source states them, for the method shown. In cells and extracts the contact can be indirect. Here binding means that the protein was enriched with, or labelled near, the bait; the list need not be complete. Sequences can lack the tags named with a protein.
